# Experimental data from the supplement of paper PMC8728848.
# The list shows a part of the results.
# B1: EUL D1A first (Oryza sativa) (protein)
# chain: MFGFGHHHNQAPAAPSDPNQIFKIFCRANENYCLTVRDSAVVLAPVNPKDEHQHWFKDMRFSTKVKDGEGMPAFALVNKATGLAVKHSLGQSHPVKLVPFNPEYEDASVLWTESKDVGKGFRCIRMVNNTRLNLDAFHGDKDHGGVRDGTTVVLWEWCKGDNQSWKILPWGPEAHSSSPGAATILEQKLISEEDLNSAVDHHHHHH
# Legend:
# Assay in all cases: glycan array binding signal (z-score within array); higher = stronger binding
# Conditions in all cases: glycan notation: IUPAC condensed, linker removed
# [1] = target: GlcNAc(b1-3)Gal(b1-4)GlcNAc(b1-3)Gal(b1-4)GlcNAc(b1-3)GalNAc
# Outline: (§1)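 Arrays were curated from the Consortium for Functional Glycomics database, 3228 in total, and kept only where the protein sequence was available. Binding is expressed as a within-array Z-score. This score was averaged across arrays of the same protein sequence at different concentrations or buffers and across linkers, and negative values can be read as non-binding.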
# [2] = target: GlcNAc(b1-3)Gal(b1-4)GlcNAc(b1-3)GalNAc
# Outline: as §1
# [3] = target: GlcNAc(b1-3)Gal(b1-4)GlcNAc(b1-3)[GlcNAc(b1-3)Gal(b1-4)GlcNAc(b1-3)]GalNAc
# Outline: as §1
# [4] = target: GlcNAc(b1-3)Gal(b1-4)GlcNAc(b1-6)[Gal(b1-3)]GalNAc
# Outline: as §1
# [5] = target: GlcNAc(b1-3)Gal(b1-4)GlcNAc(b1-6)[GlcNAc(b1-3)Gal(b1-3)]GalNAc
# Outline: as §1
# [6] = target: GlcNAc(b1-3)Gal(b1-4)GlcNAc(b1-6)[GlcNAc(b1-3)]Gal(b1-4)GlcNAc
# Outline: as §1
# GlcNAc(b1-3)GalNAc = target: GlcNAc(b1-3)GalNAc
# Outline: as §1
# GlcNAc(b1-3)Man = target: GlcNAc(b1-3)Man
# Outline: as §1
# [7] = target: GlcNAc(b1-3)[GlcNAc(b1-4)][GlcNAc(b1-6)]GlcNAc
# Outline: as §1
# [8] = target: GlcNAc(b1-3)[GlcNAc(b1-6)]Gal(b1-4)GlcNAc
# Outline: as §1
# [9] = target: GlcNAc(b1-3)[GlcNAc(b1-6)]GalNAc
# Outline: as §1
# [10] = target: GlcNAc(b1-4)Gal(b1-4)GlcNAc
# Outline: as §1
# GlcNAc(b1-4)GlcNAc = target: GlcNAc(b1-4)GlcNAc
# Outline: as §1
# [11] = target: GlcNAc(b1-4)GlcNAc(b1-4)GlcNAc
# Outline: as §1
# [12] = target: GlcNAc(b1-4)GlcNAc(b1-4)GlcNAc(b1-4)GlcNAc(b1-4)GlcNAc
# Outline: as §1
# [13] = target: GlcNAc(b1-4)GlcNAc(b1-4)GlcNAc(b1-4)GlcNAc(b1-4)GlcNAc(b1-4)GlcNAc
# Outline: as §1
# [14] = target: GlcNAc(b1-4)[GlcNAc(b1-6)]GalNAc
# Outline: as §1
# [15] = target: GlcNAc(b1-6)Gal(b1-4)GlcNAc
# Outline: as §1
# GlcNAc(b1-6)GalNAc = target: GlcNAc(b1-6)GalNAc
# Outline: as §1
# [16] = target: GlcNAc6S(b1-3)Gal(b1-4)GlcNAc
# Outline: as §1
# Kdn(a2-3)Gal(b1-3)GalNAc = target: Kdn(a2-3)Gal(b1-3)GalNAc
# Outline: as §1
# Kdn(a2-3)Gal(b1-3)GlcNAc = target: Kdn(a2-3)Gal(b1-3)GlcNAc
# Outline: as §1
# Kdn(a2-3)Gal(b1-4)Glc = target: Kdn(a2-3)Gal(b1-4)Glc
# Outline: as §1
# Kdn(a2-3)Gal(b1-4)GlcNAc = target: Kdn(a2-3)Gal(b1-4)GlcNAc
# Outline: as §1
# [17] = target: Kdn(a2-3)Gal(b1-4)[Fuc(a1-3)]GlcNAc
# Outline: as §1
# Kdn(a2-6)Gal(b1-4)GlcNAc = target: Kdn(a2-6)Gal(b1-4)GlcNAc
# Outline: as §1
# [18] = target: Man(a1-2)Man(a1-2)Man(a1-3)Man
# Outline: as §1
# [19] = target: Man(a1-2)Man(a1-2)Man(a1-6)[Man(a1-3)]Man
# Outline: as §1
# Man(a1-2)Man(a1-3)Man = target: Man(a1-2)Man(a1-3)Man
# Outline: as §1
# [20] = target: Man(a1-2)Man(a1-3)[Man(a1-2)Man(a1-6)]Man
# Outline: as §1
# [21] = target: Man(a1-2)Man(a1-3)[Man(a1-2)Man(a1-6)]Man(a1-6)[Man(a1-2)Man(a1-2)Man(a1-3)]Man
# Outline: as §1
# [22] = target: Man(a1-2)Man(a1-3)[Man(a1-2)Man(a1-6)]Man(a1-6)[Man(a1-2)Man(a1-2)Man(a1-3)]Man(b1-4)GlcNAc(b1-4)GlcNAc
# Outline: as §1
# [23] = target: Man(a1-2)Man(a1-3)[Man(a1-6)]Man(a1-6)[Man(a1-2)Man(a1-3)]Man(b1-4)GlcNAc(b1-4)GlcNAc
# Outline: as §1
# [24] = target: Man(a1-2)Man(a1-6)[Man(a1-3)]Man(a1-6)[Man(a1-2)Man(a1-2)Man(a1-3)]Man
# Outline: as §1
# [25] = target: Man(a1-2)Man(a1-6)[Man(a1-3)]Man(a1-6)[Man(a1-2)Man(a1-2)Man(a1-3)]Man(b1-4)GlcNAc(b1-4)GlcNAc
# Outline: as §1
# Man(a1-3)[Man(a1-6)]Man = target: Man(a1-3)[Man(a1-6)]Man
# Outline: as §1
# [26] = target: Man(a1-3)[Man(a1-6)]Man(a1-6)[Man(a1-2)Man(a1-3)]Man(b1-4)GlcNAc(b1-4)GlcNAc
# Outline: as §1
# [27] = target: Man(a1-3)[Man(a1-6)]Man(a1-6)[Man(a1-3)]Man
# Outline: as §1
# [28] = target: Man(a1-3)[Man(a1-6)]Man(a1-6)[Man(a1-3)]Man(b1-4)GlcNAc(b1-4)GlcNAc
# Outline: as §1
# [29] = target: Man(a1-3)[Man(a1-6)]Man(b1-4)GlcNAc(b1-4)GlcNAc
# Outline: as §1
# [30] = target: Man(a1-3)[Man(a1-6)]Man(b1-4)GlcNAc(b1-4)[Fuc(a1-6)]GlcNAc
# Outline: as §1
# Man(a1-6)Man = target: Man(a1-6)Man
# Outline: as §1
# Man(b1-4)GlcNAc = target: Man(b1-4)GlcNAc
# Outline: as §1
# MurNAc(b1-4)GlcNAc = target: MurNAc(b1-4)GlcNAc
# Outline: as §1
# Neu5Ac(a2-3)Gal = target: Neu5Ac(a2-3)Gal
# Outline: as §1
binder,measurement,setting,value
B1,glycan array binding signal (z-score),[1],-0.04
same,glycan array binding signal (z-score),[2],-0.003
same,glycan array binding signal (z-score),[3],1.74
same,glycan array binding signal (z-score),[4],-0.67
same,glycan array binding signal (z-score),[5],-0.216
same,glycan array binding signal (z-score),[6],-0.411
same,glycan array binding signal (z-score),GlcNAc(b1-3)GalNAc,-0.716
same,glycan array binding signal (z-score),GlcNAc(b1-3)Man,0.924
same,glycan array binding signal (z-score),[7],0.027
same,glycan array binding signal (z-score),[8],6.85
same,glycan array binding signal (z-score),[9],-0.649
same,glycan array binding signal (z-score),[10],-0.14
same,glycan array binding signal (z-score),GlcNAc(b1-4)GlcNAc,0.742
same,glycan array binding signal (z-score),[11],-0.702
same,glycan array binding signal (z-score),[12],-1.15
same,glycan array binding signal (z-score),[13],-0.541
same,glycan array binding signal (z-score),[14],-0.149
same,glycan array binding signal (z-score),[15],0.186
same,glycan array binding signal (z-score),GlcNAc(b1-6)GalNAc,0.78
same,glycan array binding signal (z-score),[16],-1.18
same,glycan array binding signal (z-score),Kdn(a2-3)Gal(b1-3)GalNAc,0.717
same,glycan array binding signal (z-score),Kdn(a2-3)Gal(b1-3)GlcNAc,0.324
same,glycan array binding signal (z-score),Kdn(a2-3)Gal(b1-4)Glc,0.202
same,glycan array binding signal (z-score),Kdn(a2-3)Gal(b1-4)GlcNAc,-1.25
same,glycan array binding signal (z-score),[17],0.073
same,glycan array binding signal (z-score),Kdn(a2-6)Gal(b1-4)GlcNAc,-0.931
same,glycan array binding signal (z-score),[18],-1.22
same,glycan array binding signal (z-score),[19],2.01
same,glycan array binding signal (z-score),Man(a1-2)Man(a1-3)Man,0.615
same,glycan array binding signal (z-score),[20],-1.03
same,glycan array binding signal (z-score),[21],-0.88
same,glycan array binding signal (z-score),[22],-0.336
same,glycan array binding signal (z-score),[23],1.15
same,glycan array binding signal (z-score),[24],-0.131
same,glycan array binding signal (z-score),[25],-0.834
same,glycan array binding signal (z-score),Man(a1-3)[Man(a1-6)]Man,0.007
same,glycan array binding signal (z-score),[26],0.578
same,glycan array binding signal (z-score),[27],-1.5
same,glycan array binding signal (z-score),[28],-0.508
same,glycan array binding signal (z-score),[29],0.653
same,glycan array binding signal (z-score),[30],-0.172
same,glycan array binding signal (z-score),Man(a1-6)Man,-0.455
same,glycan array binding signal (z-score),Man(b1-4)GlcNAc,-0.261
same,glycan array binding signal (z-score),MurNAc(b1-4)GlcNAc,-0.04
same,glycan array binding signal (z-score),Neu5Ac(a2-3)Gal,-1.02

# Two entries drawn at random from those above, as already listed:
binder,measurement,setting,value
B1,glycan array binding signal (z-score),Man(a1-6)Man,-0.455
same,glycan array binding signal (z-score),[11],-0.702
